According to the supplement of paper PMC10626197:
Several reference drugs read as weak here; read low effects with care.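 Drug pairs were tested on MCF7 breast cancer cells in a dose grid. On every plate, solvent-only DMSO wells served as the untreated reference, and a doxorubicin series served as the total-kill control. No hit threshold applies to the viability readings.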

System: MCF7
Experiment: cell viability relative to DMSO control (raw); higher = more viable cells
Settings: exposure time 72 h
Description: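 MCF7 cells, 1000 cells/well in 384-well plates, treated with 6x6 dose matrices of drug pairs (1:3 serial dilutions, DMSO as lowest dose) for 72 h at 37 °C. Viability read by CellTiter-Glo luminescence, 3 biological replicates. Normalised viability sets 0% at the highest doxorubicin dose and 100% at the 0,0 µM control per combination.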

O=C1c2c(O)ccc(O)c2C(=O)c2c(NCCNCCO)ccc(NCCNCCO)c21 [Mitoxantrone] + Cc1ncc(NC(=O)c2ccc(CN3CCN(C)CC3)c(C(F)(F)F)c2)cc1Nc1nccc(-c2cccnc2)n1 [Flumatinib (mesylate)]
cell viability [%]
Settings | drug 2 concentration 0 µM | drug 2 concentration 0.617284 µM | drug 2 concentration 1.85185 µM | drug 2 concentration 5.55556 µM | drug 2 concentration 16.6667 µM | drug 2 concentration 50 µM
drug 1 concentration 0.0123457 µM | 99.3 | 93 | 94.6 | 90.9 | 22.6 | 0.642
drug 1 concentration 0.037037 µM | 97.6 | 93 | 91.8 | 89.9 | 83.3 | 0.687
drug 1 concentration 0.111111 µM | 87.3 | 79.1 | 83.3 | 85.7 | 66.79 | 2.66
drug 1 concentration 0.333333 µM | 78.6 | 71.1 | 71.2 | 72.6 | 0.834 | 1.93
drug 1 concentration 1 µM | 72.2 | 64 | 50.5 | 17 | 0.624 | 1.27

COc1cc2ncnc(Nc3ccc(F)c(Cl)c3)c2cc1OCCCN1CCOCC1 [Gefitinib] + NS(=O)(=O)c1cc2c(cc1Cl)NCNS2(=O)=O [Hydrochlorothiazide]
cell viability [%]
Settings | drug 2 concentration 0 µM | drug 2 concentration 0.0246914 µM | drug 2 concentration 0.0740741 µM | drug 2 concentration 0.222222 µM | drug 2 concentration 0.666667 µM | drug 2 concentration 2 µM
drug 1 concentration 0.123457 µM | 101 | 109 | 108 | 104 | 100 | 108
drug 1 concentration 0.37037 µM | 104 | 115 | 113 | 114 | 111 | 110
drug 1 concentration 1.11111 µM | 106 | 106.4 | 104 | 109 | 111 | 107
drug 1 concentration 3.33333 µM | 98.5 | 95.2 | 102 | 112 | 110 | 110
drug 1 concentration 10 µM | 68.4 | 67.3 | 70.8 | 64.2 | 72.7 | 72.5

O=c1[nH]cc(F)c(=O)[nH]1 [5-Fluorouracil] + Cc1onc(-c2ccccc2)c1-c1ccc(S(N)(=O)=O)cc1 [Valdecoxib]
cell viability [%]
Settings | drug 2 concentration 0 µM | drug 2 concentration 0.17284 µM | drug 2 concentration 0.518519 µM | drug 2 concentration 1.55556 µM | drug 2 concentration 4.66667 µM | drug 2 concentration 14 µM
drug 1 concentration 0.617284 µM | 96.8 | 94.4 | 97.8 | 94.1 | 91.5 | 92.3
drug 1 concentration 1.85185 µM | 91.6 | 90.8 | 97.5 | 97.8 | 94.7 | 76.8
drug 1 concentration 5.55556 µM | 88.2 | 100 | 96.3 | 91.8 | 94.4 | 86.4
drug 1 concentration 16.6667 µM | 77.1 | 76.3 | 84.4 | 84.9 | 80.7 | 63.2
drug 1 concentration 50 µM | 85.5 | 89.1 | 88.6 | 87.3 | 84.9 | 79.5

Cc1ccc(NC(=O)c2ccc(CN3CCN(C)CC3)cc2)cc1Nc1nccc(-c2cccnc2)n1 [Imatinib] + COc1ccc(CC2c3cc(OC)c(OC)cc3CC[N+]2(C)CCC(=O)OCCCCCOC(=O)CC[N+]2(C)CCc3cc(OC)c(OC)cc3C2Cc2ccc(OC)c(OC)c2)cc1OC [Atracurium (besylate)]
cell viability [%]
Settings | drug 2 concentration 0 µM | drug 2 concentration 0.246914 µM | drug 2 concentration 0.740741 µM | drug 2 concentration 2.22222 µM | drug 2 concentration 6.66667 µM | drug 2 concentration 20 µM
drug 1 concentration 0.123457 µM | 107 | 105 | 99.5 | 102 | 97.4 | 67.1
drug 1 concentration 0.37037 µM | 115 | 111 | 120 | 116 | 109 | 85.9
drug 1 concentration 1.11111 µM | 109 | 114 | 118 | 118 | 107 | 72.8
drug 1 concentration 3.33333 µM | 104 | 107 | 112 | 105 | 99.3 | 68.2
drug 1 concentration 10 µM | 101 | 93.1 | 92.6 | 91.4 | 79.7 | 52.6
